Some of the results follow. Hit calls seldom repeat between salt and free forms of one compound.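 In K562 cells expressing nanoluciferase-fused kinases, luminescence was recorded at 4 h intervals between 2 and 18 h, normalized as percent of control with DMSO at 100% and a positive control at 0%. A significant (2 sigma) signal drop marks a time point as decreased. The authors' rule for a hit is not shown and takes in more than the number of time points.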
Legend:
Conditions in all cases: K562; 2-18 h
RET = RET (UniProt P07949); assay: kinase-Nluc reporter destabilization hit call (1 = scored as downregulated) (binary); higher = compound decreases kinase abundance
[1] = target: RET_M918T (clone: RET_mut) (UniProt P07949); assay: as above
RIOK1 = RIOK1 (UniProt Q9BRS2); assay: as above
RIPK1 = RIPK1 (UniProt Q13546); assay: as above
RIPK2 = RIPK2 (UniProt O43353); assay: as above
ROR2 = ROR2 (UniProt Q01974); assay: as above
RPS6KA1 = RPS6KA1 (UniProt Q15418); assay: as above
SPHK1 = SPHK1 (UniProt Q9NYA1); assay: as above
SRC = SRC (UniProt P12931); assay: as above
STK24 = STK24 (UniProt Q9Y6E0); assay: as above
STK38 = STK38 (UniProt Q15208); assay: as above
SYK = SYK (UniProt P43405); assay: as above
TEC = TEC (UniProt P42680); assay: as above
TYK2 = TYK2 (UniProt P29597); assay: as above
ULK3 = ULK3 (UniProt Q6PHR2); assay: as above
YES1 = YES1 (UniProt P07947); assay: as above
ZAK = ZAK (UniProt Q9NYL2); assay: as above
ZAP70 = ZAP70 (UniProt P43403); assay: as above
ABL1 = ABL1 (UniProt P00519); assay: number of time points (of 5) at which kinase-Nluc abundance scored as decreased, DMSO-normalised (count); higher = more persistent destabilization
AKT1 = AKT1 (UniProt P31749); assay: as above

Protein sequences, listed by entry. Tags and fused reporters are not part of them. Lines headed by an entry give the natural chain unless they say otherwise; changes in a name come on top.
UniProt P07949, whole entry, looked up: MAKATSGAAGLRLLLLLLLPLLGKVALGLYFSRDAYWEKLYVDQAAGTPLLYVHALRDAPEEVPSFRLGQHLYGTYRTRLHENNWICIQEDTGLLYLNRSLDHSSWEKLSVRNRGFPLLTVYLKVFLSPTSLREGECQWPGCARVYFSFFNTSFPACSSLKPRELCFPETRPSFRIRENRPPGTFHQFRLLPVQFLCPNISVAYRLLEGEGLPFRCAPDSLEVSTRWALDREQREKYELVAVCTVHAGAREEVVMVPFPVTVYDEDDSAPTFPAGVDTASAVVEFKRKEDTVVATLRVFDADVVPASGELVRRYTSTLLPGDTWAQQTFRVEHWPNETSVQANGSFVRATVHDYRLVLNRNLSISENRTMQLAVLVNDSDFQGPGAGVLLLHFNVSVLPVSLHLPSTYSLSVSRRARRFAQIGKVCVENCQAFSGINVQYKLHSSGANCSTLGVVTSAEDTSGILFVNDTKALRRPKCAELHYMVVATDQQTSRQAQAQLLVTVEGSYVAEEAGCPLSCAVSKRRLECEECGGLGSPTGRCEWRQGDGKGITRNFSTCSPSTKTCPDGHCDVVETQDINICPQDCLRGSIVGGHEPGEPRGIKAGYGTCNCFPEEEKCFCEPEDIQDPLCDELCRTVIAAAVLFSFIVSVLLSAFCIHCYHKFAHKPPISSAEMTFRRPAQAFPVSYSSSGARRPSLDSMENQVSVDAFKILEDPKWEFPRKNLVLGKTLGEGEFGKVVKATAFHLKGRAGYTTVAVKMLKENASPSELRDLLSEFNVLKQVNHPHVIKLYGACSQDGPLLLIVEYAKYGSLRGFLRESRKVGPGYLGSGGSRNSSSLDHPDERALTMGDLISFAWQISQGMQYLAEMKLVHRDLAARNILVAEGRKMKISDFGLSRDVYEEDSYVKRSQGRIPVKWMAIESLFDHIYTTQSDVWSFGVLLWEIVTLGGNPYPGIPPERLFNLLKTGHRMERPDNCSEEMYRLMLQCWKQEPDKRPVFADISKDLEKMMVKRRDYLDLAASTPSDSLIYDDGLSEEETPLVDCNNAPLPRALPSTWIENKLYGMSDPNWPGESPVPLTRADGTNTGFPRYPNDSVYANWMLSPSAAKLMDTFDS
UniProt P07949, whole entry M918T, looked up: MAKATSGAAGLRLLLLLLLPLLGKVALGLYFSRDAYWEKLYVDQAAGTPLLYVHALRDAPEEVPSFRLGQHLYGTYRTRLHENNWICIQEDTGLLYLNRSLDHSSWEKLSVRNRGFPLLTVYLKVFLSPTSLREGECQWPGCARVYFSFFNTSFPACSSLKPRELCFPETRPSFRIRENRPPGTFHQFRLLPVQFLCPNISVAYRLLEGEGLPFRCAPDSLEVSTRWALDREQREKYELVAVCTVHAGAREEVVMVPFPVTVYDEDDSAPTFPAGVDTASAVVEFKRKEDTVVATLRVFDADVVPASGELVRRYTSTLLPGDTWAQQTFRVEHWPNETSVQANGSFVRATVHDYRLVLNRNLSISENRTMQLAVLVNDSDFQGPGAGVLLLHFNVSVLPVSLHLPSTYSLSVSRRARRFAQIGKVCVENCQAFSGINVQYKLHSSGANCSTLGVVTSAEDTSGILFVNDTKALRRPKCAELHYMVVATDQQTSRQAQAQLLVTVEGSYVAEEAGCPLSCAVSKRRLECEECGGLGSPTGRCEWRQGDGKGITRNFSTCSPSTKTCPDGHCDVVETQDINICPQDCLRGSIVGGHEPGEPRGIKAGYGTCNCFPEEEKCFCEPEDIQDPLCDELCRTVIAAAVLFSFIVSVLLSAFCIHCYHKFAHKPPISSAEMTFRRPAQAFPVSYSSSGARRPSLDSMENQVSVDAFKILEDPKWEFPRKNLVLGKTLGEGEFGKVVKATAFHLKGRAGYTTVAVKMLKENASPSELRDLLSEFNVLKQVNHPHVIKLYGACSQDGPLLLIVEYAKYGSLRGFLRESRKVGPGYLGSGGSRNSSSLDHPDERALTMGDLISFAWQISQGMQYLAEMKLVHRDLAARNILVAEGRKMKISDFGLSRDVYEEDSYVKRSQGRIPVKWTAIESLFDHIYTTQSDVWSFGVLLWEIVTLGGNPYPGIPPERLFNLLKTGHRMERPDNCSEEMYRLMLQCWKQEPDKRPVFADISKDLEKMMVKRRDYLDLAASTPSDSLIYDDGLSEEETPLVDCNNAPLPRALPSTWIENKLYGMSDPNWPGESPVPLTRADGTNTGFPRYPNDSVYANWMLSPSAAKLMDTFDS
UniProt Q01974, whole entry: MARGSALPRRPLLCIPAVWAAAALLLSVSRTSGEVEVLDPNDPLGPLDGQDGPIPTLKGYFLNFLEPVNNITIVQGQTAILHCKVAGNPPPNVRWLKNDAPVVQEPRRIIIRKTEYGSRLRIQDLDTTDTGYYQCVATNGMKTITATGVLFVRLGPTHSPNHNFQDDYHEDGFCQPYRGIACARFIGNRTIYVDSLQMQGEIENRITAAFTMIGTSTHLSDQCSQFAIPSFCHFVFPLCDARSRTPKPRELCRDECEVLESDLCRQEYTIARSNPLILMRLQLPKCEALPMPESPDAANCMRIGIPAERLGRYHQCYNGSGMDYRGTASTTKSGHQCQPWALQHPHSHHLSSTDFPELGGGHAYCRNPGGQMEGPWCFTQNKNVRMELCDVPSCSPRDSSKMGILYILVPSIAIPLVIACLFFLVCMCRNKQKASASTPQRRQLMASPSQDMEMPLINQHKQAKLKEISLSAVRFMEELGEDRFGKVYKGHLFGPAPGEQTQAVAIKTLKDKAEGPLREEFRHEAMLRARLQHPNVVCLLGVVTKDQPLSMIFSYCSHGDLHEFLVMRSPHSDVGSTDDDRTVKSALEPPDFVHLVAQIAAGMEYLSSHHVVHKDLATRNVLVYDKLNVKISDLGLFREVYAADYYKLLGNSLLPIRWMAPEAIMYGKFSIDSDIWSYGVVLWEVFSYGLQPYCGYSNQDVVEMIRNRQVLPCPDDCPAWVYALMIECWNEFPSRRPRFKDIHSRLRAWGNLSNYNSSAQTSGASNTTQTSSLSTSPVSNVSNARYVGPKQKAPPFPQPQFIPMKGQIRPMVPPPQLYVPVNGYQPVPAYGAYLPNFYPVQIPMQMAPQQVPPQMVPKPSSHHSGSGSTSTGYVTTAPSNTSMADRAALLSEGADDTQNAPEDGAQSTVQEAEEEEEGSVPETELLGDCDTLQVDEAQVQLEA
UniProt Q15418, whole entry: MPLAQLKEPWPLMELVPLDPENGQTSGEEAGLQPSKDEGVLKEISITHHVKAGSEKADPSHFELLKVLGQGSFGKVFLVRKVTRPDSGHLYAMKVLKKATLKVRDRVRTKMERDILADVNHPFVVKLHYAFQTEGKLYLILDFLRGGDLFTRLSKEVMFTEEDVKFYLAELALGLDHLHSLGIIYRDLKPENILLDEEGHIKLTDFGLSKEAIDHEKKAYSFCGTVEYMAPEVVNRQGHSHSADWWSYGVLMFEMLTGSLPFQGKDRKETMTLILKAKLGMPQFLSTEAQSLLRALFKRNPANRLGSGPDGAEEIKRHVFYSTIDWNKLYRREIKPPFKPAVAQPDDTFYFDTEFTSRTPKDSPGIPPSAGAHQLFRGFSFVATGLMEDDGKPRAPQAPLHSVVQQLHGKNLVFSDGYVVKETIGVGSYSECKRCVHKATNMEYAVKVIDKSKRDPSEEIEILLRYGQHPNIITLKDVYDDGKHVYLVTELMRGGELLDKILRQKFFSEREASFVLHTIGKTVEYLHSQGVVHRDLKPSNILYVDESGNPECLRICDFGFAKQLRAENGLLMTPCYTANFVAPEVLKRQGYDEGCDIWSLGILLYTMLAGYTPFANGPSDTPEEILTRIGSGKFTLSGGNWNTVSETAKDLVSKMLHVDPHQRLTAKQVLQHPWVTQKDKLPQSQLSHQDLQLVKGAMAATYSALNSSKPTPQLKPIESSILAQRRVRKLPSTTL
UniProt Q9Y6E0: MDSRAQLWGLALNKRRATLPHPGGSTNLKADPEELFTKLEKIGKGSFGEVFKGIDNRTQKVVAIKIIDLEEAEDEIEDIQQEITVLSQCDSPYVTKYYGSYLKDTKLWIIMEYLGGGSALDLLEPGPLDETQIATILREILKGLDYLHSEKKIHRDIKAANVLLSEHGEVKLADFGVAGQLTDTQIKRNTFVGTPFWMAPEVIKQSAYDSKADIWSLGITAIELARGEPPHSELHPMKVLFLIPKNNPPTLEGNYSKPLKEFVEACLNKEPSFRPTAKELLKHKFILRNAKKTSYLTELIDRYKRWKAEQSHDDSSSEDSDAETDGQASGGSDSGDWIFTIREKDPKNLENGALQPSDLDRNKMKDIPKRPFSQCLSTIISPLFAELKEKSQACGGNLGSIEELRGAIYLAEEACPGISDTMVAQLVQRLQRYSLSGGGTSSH
UniProt P42680: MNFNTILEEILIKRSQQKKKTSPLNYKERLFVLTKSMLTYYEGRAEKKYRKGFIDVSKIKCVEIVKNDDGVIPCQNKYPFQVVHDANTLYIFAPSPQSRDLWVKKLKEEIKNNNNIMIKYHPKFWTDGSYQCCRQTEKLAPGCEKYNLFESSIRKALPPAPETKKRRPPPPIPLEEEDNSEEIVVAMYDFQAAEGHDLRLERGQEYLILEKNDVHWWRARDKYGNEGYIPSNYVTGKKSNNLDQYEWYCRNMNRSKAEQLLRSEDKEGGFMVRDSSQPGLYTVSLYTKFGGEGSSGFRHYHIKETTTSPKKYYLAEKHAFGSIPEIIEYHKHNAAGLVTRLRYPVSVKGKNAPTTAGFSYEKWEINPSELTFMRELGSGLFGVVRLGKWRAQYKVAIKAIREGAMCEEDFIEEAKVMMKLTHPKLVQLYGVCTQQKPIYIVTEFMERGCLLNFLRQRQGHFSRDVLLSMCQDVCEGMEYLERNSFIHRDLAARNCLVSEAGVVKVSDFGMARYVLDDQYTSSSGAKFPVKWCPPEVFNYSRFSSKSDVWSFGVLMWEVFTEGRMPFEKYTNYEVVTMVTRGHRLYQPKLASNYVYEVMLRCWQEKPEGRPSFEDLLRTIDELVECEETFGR
UniProt Q6PHR2: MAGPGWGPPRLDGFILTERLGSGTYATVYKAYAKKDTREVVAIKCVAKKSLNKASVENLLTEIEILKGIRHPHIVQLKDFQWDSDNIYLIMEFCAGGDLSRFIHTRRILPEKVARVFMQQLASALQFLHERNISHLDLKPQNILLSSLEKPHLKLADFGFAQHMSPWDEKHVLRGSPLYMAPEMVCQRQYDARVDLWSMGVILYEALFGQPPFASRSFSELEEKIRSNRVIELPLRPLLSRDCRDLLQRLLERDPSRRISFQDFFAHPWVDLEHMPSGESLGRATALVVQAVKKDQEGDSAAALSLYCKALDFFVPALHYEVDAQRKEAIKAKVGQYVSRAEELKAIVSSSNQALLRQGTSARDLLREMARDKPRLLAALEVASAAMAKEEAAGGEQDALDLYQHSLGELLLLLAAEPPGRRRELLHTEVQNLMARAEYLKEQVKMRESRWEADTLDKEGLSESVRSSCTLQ
UniProt P00519, whole entry: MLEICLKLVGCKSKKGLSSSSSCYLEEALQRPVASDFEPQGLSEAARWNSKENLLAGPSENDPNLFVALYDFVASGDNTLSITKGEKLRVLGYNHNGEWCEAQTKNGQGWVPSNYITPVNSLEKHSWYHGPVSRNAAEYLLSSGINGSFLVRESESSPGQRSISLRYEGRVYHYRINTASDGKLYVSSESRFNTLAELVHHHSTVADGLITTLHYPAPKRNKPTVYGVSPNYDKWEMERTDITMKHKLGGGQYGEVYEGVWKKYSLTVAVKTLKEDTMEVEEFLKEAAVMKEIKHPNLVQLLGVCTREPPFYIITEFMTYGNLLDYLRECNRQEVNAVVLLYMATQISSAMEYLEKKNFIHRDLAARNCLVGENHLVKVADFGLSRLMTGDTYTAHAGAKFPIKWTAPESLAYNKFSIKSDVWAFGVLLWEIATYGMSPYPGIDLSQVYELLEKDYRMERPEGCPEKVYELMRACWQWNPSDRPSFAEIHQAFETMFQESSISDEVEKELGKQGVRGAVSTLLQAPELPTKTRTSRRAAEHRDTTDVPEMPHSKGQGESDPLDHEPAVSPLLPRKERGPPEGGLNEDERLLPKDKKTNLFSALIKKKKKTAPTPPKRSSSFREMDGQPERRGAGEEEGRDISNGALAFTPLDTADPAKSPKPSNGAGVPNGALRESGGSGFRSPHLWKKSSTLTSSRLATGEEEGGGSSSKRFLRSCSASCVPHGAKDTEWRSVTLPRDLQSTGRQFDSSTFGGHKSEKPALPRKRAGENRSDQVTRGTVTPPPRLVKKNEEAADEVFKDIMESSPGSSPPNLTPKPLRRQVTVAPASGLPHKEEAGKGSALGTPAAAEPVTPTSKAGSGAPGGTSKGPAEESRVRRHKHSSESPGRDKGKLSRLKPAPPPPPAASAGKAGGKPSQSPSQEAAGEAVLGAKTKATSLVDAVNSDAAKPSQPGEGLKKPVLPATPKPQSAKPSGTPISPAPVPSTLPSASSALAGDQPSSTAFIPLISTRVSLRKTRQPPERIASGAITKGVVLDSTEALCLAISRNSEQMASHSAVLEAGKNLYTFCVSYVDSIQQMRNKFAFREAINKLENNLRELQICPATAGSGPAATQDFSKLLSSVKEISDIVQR

| SMILES | kinase-Nluc reporter destabilization hit call (RET) | kinase-Nluc reporter destabilization hit call [1] | kinase-Nluc reporter destabilization hit call (RIOK1) | kinase-Nluc reporter destabilization hit call (RIPK1) | kinase-Nluc reporter destabilization hit call (RIPK2) | kinase-Nluc reporter destabilization hit call (ROR2) | kinase-Nluc reporter destabilization hit call (RPS6KA1) | kinase-Nluc reporter destabilization hit call (SPHK1) | kinase-Nluc reporter destabilization hit call (SRC) | kinase-Nluc reporter destabilization hit call (STK24) | kinase-Nluc reporter destabilization hit call (STK38) | kinase-Nluc reporter destabilization hit call (SYK) | kinase-Nluc reporter destabilization hit call (TEC) | kinase-Nluc reporter destabilization hit call (TYK2) | kinase-Nluc reporter destabilization hit call (ULK3) | kinase-Nluc reporter destabilization hit call (YES1) | kinase-Nluc reporter destabilization hit call (ZAK) | kinase-Nluc reporter destabilization hit call (ZAP70) | number of time points (ABL1) | number of time points (AKT1) |
| --- | --- | --- | --- | --- | --- | --- | --- | --- | --- | --- | --- | --- | --- | --- | --- | --- | --- | --- | --- | --- |
| C[C@H]1O[C@@H](O[C@H]2CC[C@@]3(C)[C@@H](CC[C@]4(C)[C@@H]3C=C[C@]35OC[C@@]6(CCC(C)(C)C[C@H]63)[C@H](O)C[C@]54C)[C@]2(C)CO)[C@H](O)[C@@H](O[C@@H]2O[C@H](CO)[C@@H](O)[C@H](O)[C@H]2O)[C@H]1O [Saikosaponin D] (2.5 µM) | inactive: 0 | inactive: 0 | inactive: 0 | inactive: 0 | inactive: 0 | inactive: 0 | inactive: 0 | inactive: 0 | inactive: 0 | inactive: 0 | inactive: 0 | inactive: 0 | inactive: 0 | inactive: 0 | inactive: 0 | inactive: 0 | inactive: 0 | inactive: 0 | 0 | 0 |
| C=C1CCC[C@]2(C)C=C3OC(=O)C(C)=C3C[C@@H]12 [Atractylenolide I] (10 µM) | inactive: 0 | inactive: 0 | inactive: 0 | inactive: 0 | inactive: 0 | inactive: 0 | inactive: 0 | inactive: 0 | inactive: 0 | inactive: 0 | inactive: 0 | inactive: 0 | inactive: 0 | inactive: 0 | inactive: 0 | inactive: 0 | inactive: 0 | inactive: 0 | 0 | 0 |
| O=C(NCCO)c1cc(C(=O)NCCO)cc(C(=O)NCCO)c1 (10 µM) | inactive: 0 | inactive: 0 | inactive: 0 | inactive: 0 | inactive: 0 | inactive: 0 | inactive: 0 | inactive: 0 | inactive: 0 | inactive: 0 | inactive: 0 | inactive: 0 | inactive: 0 | inactive: 0 | inactive: 0 | inactive: 0 | inactive: 0 | inactive: 0 | 0 | 0 |
| CNC(=O)c1ccc2c(c1)ncn2-c1ccc(CC(=O)OC(C)(C)C)cc1 (10 µM) | inactive: 0 | inactive: 0 | inactive: 0 | inactive: 0 | inactive: 0 | inactive: 0 | inactive: 0 | inactive: 0 | inactive: 0 | inactive: 0 | inactive: 0 | inactive: 0 | inactive: 0 | inactive: 0 | inactive: 0 | inactive: 0 | inactive: 0 | inactive: 0 | 0 | 0 |
| Nc1nc(NCCNc2ncc(-n3ccnc3)c(-c3ccc(Cl)cc3Cl)n2)ccc1[N+](=O)[O-] (2.5 µM) | inactive: 0 | inactive: 0 | inactive: 0 | inactive: 0 | inactive: 0 | inactive: 0 | inactive: 0 | inactive: 0 | inactive: 0 | inactive: 0 | inactive: 0 | inactive: 0 | inactive: 0 | inactive: 0 | inactive: 0 | inactive: 0 | inactive: 0 | inactive: 0 | 4 | 0 |
| O=C(Nc1cc(Cl)cc2c1[nH]c1cnccc12)c1cccnc1 (10 µM) | inactive: 0 | inactive: 0 | inactive: 0 | inactive: 0 | inactive: 0 | inactive: 0 | inactive: 0 | inactive: 0 | inactive: 0 | inactive: 0 | inactive: 0 | inactive: 0 | inactive: 0 | inactive: 0 | inactive: 0 | inactive: 0 | inactive: 0 | inactive: 0 | 0 | 0 |
| Cc1cc(-n2c(=O)ccc3c[nH]c4nccc-4c32)ccc1F (10 µM) | inactive: 0 | inactive: 0 | inactive: 0 | inactive: 0 | inactive: 0 | inactive: 0 | inactive: 0 | inactive: 0 | inactive: 0 | inactive: 0 | inactive: 0 | inactive: 0 | inactive: 0 | inactive: 0 | inactive: 0 | inactive: 0 | inactive: 0 | inactive: 0 | 1 | 0 |
| C=CC(=O)N1CCC[C@@H](n2nc(-c3ccc(Oc4ccccc4)cc3)c3c(N)n[nH]c(=O)c32)C1 [BTK inhibitor 17] (10 µM) | inactive: 0 | inactive: 0 | inactive: 0 | inactive: 0 | inactive: 0 | inactive: 0 | inactive: 0 | inactive: 0 | inactive: 0 | inactive: 0 | inactive: 0 | inactive: 0 | inactive: 0 | inactive: 0 | inactive: 0 | inactive: 0 | inactive: 0 | inactive: 0 | 0 | 0 |

Source: the supplement of paper PMC12823440, “Inhibitors supercharge kinase turnover through native proteolytic circuits” (Nature, 2025)
